PubChem BioAssay AID504808, Drosophila RNAi Screening Center – 2011

Purpose: 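Fly genes required to hold E2F transcription in check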 (primary screen)
Cells: Drosophila S2 cells
Reagent: long dsRNA against Drosophila genes
Measured: 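Firefly luciferase driven by E2F sites, normalised to Renilla luciferase on the same minimal promoter, measured by plate reader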
Scale: E2F firefly: higher = more E2F reporter activity; Renilla normaliser: higher = more normaliser reporter signal
Call rule: 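a knock-down counted as active when the firefly/Renilla E2F signal rose above 50%, a threshold chosen arbitrarily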
The screen tested about 21,000 reagents; below is an unselected part of those that have a named target and a result. Over the whole deposit, 18 (0.084%) got an active call. 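Raw counts without plate normalisation, one of two replicates; the ratio scores behind the calls were not deposited.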 Unmarked entries are inactive. A plus sign joins genes that one reagent is predicted to hit. Not given: the amount of reagent, the time to read-out.

target | dsRNA | E2F firefly, rep 1 | Renilla normaliser, rep 1
CG3345 | DRSC00596 | 92459 | 3767
TTLL5 | DRSC14181 | 76594 | 3194
zetaCOP | DRSC11412 | 1.06e5 | 8755
CG14191 | DRSC19546 | 1.22e5 | 120
CG3626 | DRSC18318 | 45343 | 3494
Cyp313a3 | DRSC16626 | 1.52e5 | 6211
Ugt35A1 | DRSC16892 | 70431 | 3670
CG11378 | DRSC18627 | 1.15e5 | 6012
rept | DRSC11388 | 1.42e5 | 6225
CG31782 (retired record) | DRSC01554 | 1.57e5 | 5813
CG31782 (retired record) | DRSC01556 | 1.45e5 | 5470
Pgant8 | DRSC10801 | 1.56e5 | 7843
CG34280 | DRSC13229 | 87804 | 2301
Arpc5 | DRSC00730 | 1.54e5 | 5438
Caf1-180 | DRSC17807 | 7564 | 756
dpr19 | DRSC02237 | 1.58e5 | 4849
Mon1 | DRSC00336 | 1.57e5 | 5104
AsnRS-m | DRSC07010 | 1.50e5 | 5017
Dhit | DRSC07411 | 72936 | 3546
Hgsnat | DRSC18405 | 6768 | 740
CG18417 | DRSC10319 | 96986 | 3981
Nlg4 | DRSC15108 | 1.37e5 | 6984
Nlg4 | DRSC15109 | 1.40e5 | 6864
Nlg4 | DRSC15700 | 1.47e5 | 7329
Nlg4 | DRSC15701 | 1.07e5 | 5016
CG11037 | DRSC11631 | 1.17e5 | 6470
CG31810 | DRSC01560 | 1.40e5 | 5566
glu | DRSC03539 | 82178 | 3229
ImpE3 | DRSC16716 | 1.24e5 | 7159
CG6985 | DRSC16164 | 63836 | 3248
nSyb | DRSC08727 | 67449 | 2980
Pal1 | DRSC06106 | 3278 | 229
CG7536 | DRSC20050 | 1.45e5 | 4971
CG14269 | DRSC17912 | 1.08e5 | 5281
CG6885 | DRSC10740 | 1.34e5 | 7680
cv-d | DRSC16522 | 70325 | 3498
cv-d | DRSC16524 | 1.07e5 | 5391
cv-d | DRSC16526 | 1.18e5 | 6721
ND-B18 | DRSC19947 | 1.50e5 | 6240
Afg3l2 | DRSC10657 | 78365 | 3955
CG18598 | DRSC15356 | 1.40e5 | 6946
Eip78C | DRSC11864 | 86135 | 4488
gkt | DRSC00821 | 1.38e5 | 4920
CG15093 | DRSC06522 | 74977 | 3967
Ldaf1 | DRSC17963 | 1825 | 1040
Lim1 | DRSC17752 | 8276 | 756
Lim1 | DRSC18677 | 98501 | 4782
CG8008 | DRSC07053 | 3115 | 197
CG42241 (retired record) | DRSC04007 | 1.39e5 | 6065
Prosbeta2R1 | DRSC18154 | 44665 | 3175
DptA | DRSC07404 | 1.47e5 | 5209
CG34135 | DRSC12702 | 53973 | 4228
Ace | DRSC12959 | 76360 | 2597
Ace | DRSC14100 | 77035 | 3806
GPHR | DRSC07075 | 1.14e5 | 4469
CG5506 | DRSC10511 | 1.73e5 | 9527
CR34254 | DRSC09562 | 1.22e5 | 3165
Blos3 | DRSC09573 | 50968 | 3330
hyx | DRSC14462 | 56984 | 3328
CG9030 | DRSC20139 | 2.33e5 | 7136
Sgs7 | DRSC11281 | 1.30e5 | 7119
CG9147 | DRSC03147 | 1.52e5 | 5332
CG11634 | DRSC03700 | 1.01e5 | 4281
CG13471 | DRSC10015 | 1.45e5 | 8157
CG3330 | DRSC15477 | 1729 | 920
Nplp4 | DRSC00391 | 1.77e5 | 5769
CG32572 | DRSC19525 | 1.55e5 | 5829
CG32572 | DRSC19526 | 1.53e5 | 6365
ND-B8 | DRSC00449 | 1.54e5 | 5398
CG7222 | DRSC07019 | 3350 | 115
AdamTS-A | DRSC14992 | 80849 | 3827
AdamTS-A | DRSC15966 | 1.04e5 | 5174
bap | DRSC16908 | 66688 | 3637
fd102C | DRSC17203 | 1.12e5 | 5018
Nepl10 | DRSC07212 | 93724 | 4317
Msr-110 | DRSC11227 | 68261 | 2942
CG13443 | DRSC06403 | 1.02e5 | 4806
Lst8 | DRSC18262 | 7778 | 704
CG17362 | DRSC10267 | 1.43e5 | 5929
sll | DRSC16271 | 64193 | 3660
shrb | DRSC07061 | 2598 | 172
ocm | DRSC04360 | 1.31e5 (active) | 219
CG15461 | DRSC20532 | 1.40e5 | 6653
Gbeta5 | DRSC17754 | 1.21e5 | 5912
CG33506 | DRSC05981 | 113 | 34
CG42527 (retired record) + Hr4 | DRSC18495 | 1.25e5 | 6693
ARY (retired record) | DRSC20867 | 73504 | 2371
slo | DRSC17057 | 72175 | 3946
ppk7 | DRSC03236 | 1.68e5 | 5675
B52 | DRSC14121 | 80046 | 3279
loh | DRSC01122 | 1.43e5 | 5981
loh | DRSC02943 | 1.36e5 | 4495
Gs1 | DRSC00753 | 80111 | 3360
CG13810 | DRSC08344 | 1.03e5 | 4107
SkpF + CG5357 (retired record) | DRSC04120 | 1.04e5 | 4837
CG33919 | DRSC04940 | 1.43e5 | 4997
Polr2F | DRSC12366 | 72756 | 6431
Tk | DRSC14954 | 1.32e5 | 6070
CG11703 | DRSC14356 | 69228 | 3516
CG13151 | DRSC06276 | 1.01e5 | 4171
kmr | DRSC12986 | 83660 | 2989
kmr | DRSC14827 | 87221 | 5461
kmr | DRSC14828 | 1.04e5 | 4932
kmr | DRSC16472 | 80471 | 3882
CG34050 (retired record) | DRSC09067 | 82828 | 3437
spag | DRSC04717 | 1.12e5 | 4825
Sin3A | DRSC07552 | 1619 | 212
